The text below walks through data of article doi:10.1101/2022.03.04.482956.

By UniProt entry, the sequences of proteins in these tests, tags left out. Where a name states a change or a piece, a line headed by the entry shows the natural chain unless it says otherwise. Residues count along the entry.
UniProt Q86YI8, whole entry: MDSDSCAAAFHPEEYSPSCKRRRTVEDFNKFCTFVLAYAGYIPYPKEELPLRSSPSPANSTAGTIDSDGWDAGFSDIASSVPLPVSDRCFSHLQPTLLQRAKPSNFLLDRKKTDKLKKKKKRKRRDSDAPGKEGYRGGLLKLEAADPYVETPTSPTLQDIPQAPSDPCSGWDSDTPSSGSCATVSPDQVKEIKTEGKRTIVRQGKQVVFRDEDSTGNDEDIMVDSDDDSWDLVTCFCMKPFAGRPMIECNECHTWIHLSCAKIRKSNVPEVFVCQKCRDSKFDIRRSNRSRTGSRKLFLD
UniProt Q86YI8, 150-300: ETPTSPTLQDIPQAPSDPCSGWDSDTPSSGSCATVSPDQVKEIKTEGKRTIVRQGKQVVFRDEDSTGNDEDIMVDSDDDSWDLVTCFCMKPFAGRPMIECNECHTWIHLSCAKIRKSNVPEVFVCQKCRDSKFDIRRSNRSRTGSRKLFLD
UniProt Q86YI8, 1-150: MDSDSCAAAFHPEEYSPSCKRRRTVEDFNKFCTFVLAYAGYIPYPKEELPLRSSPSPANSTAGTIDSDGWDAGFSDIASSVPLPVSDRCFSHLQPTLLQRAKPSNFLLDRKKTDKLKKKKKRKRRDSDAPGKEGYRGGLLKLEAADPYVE
UniProt Q9UQE7, whole entry: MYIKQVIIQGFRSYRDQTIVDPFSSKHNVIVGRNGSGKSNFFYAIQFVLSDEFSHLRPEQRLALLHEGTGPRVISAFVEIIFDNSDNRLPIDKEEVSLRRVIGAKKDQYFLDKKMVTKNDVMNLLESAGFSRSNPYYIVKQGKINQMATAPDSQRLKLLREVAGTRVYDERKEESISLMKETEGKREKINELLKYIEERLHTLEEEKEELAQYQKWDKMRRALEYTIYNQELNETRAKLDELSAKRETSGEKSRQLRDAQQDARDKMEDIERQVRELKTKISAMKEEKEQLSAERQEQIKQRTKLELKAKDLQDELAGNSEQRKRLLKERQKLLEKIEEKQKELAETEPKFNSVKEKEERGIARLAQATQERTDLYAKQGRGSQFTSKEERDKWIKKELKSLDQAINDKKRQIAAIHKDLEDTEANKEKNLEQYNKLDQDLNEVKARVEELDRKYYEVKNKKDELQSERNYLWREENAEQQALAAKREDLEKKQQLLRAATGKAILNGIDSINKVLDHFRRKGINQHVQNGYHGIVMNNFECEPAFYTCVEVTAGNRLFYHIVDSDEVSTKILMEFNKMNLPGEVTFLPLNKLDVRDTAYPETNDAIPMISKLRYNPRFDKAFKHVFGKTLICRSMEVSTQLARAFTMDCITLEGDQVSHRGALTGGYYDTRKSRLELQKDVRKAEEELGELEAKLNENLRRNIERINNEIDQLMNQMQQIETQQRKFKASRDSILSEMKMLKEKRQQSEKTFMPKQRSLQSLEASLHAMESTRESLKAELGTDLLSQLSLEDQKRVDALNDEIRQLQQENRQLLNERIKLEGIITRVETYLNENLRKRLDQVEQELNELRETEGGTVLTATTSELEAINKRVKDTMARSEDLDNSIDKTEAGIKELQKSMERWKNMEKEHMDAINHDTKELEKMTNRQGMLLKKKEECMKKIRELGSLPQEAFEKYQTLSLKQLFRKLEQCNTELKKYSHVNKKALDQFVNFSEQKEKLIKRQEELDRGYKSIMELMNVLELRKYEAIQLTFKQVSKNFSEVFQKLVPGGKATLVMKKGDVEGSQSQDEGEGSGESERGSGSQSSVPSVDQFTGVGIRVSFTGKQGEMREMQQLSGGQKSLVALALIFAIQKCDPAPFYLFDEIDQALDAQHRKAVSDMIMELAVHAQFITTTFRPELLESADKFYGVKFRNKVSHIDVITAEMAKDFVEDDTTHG

Test [1] has as its target YFP-PHF13 (UniProt Q86YI8). Kind of test: FRET or BRET. For orientation: Bioluminescence resonance energy transfer reports proximity on the nanometre scale.
Test [2] concerns the target SMC3 (endogenous cohesin subunit) (human (endogenous in U2OS)) (UniProt Q9UQE7). The test is described as follows: co-IP.
Test [3] deals with Flag-PHF13 (1-300aa) (UniProt Q86YI8). The test is described as follows: co-IP.
Test [4] deals with Flag-PHF13_1-150 (UniProt Q86YI8). The test is described as follows: co-IP.
The target in test [5] is YFP-PHF13 Δ7M246A (UniProt Q86YI8). Kind of test: co-IP.
The target in test [6] is YFP-PHF13 Δ7W255A (UniProt Q86YI8). The test is described as follows: co-IP.
Test [7] deals with YFP-PHF13 Δ7 (150-300) (UniProt Q86YI8). Kind of test: co-IP.
Test [8] has as its target YFP-PHF13 Δ7M246A (UniProt Q86YI8). Kind of test: co-IP. This is another data set of the same source.
The target of test [9] is PHF13 (endogenous) (human (endogenous in U2OS)) (UniProt Q86YI8). The test is described as follows: co-IP.
Test [10] concerns the target YFP-PHF13 Δ7W255A (UniProt Q86YI8). Kind of test: co-IP. This is another data set of the same source.
Test [11] addresses YFP-PHF13 Δ7 (150-300) (UniProt Q86YI8). The test is described as follows: co-IP. This is another data set of the same source.
Test [12] deals with in vitro translated PHF13 (UniProt Q86YI8). Kind of test: SEC. For orientation: Size exclusion chromatography separates by hydrodynamic size, large species first.
Test [13] addresses PHF13 (endogenous) (human (endogenous in U2OS)) (UniProt Q86YI8). Kind of test: co-IP. This is another data set of the same source.
For test [14], the target named is YFP-PHF13 Δ7M246A (UniProt Q86YI8). Kind of test: co-IP. The source holds these as a separate data set.
The target of test [15] is YFP-PHF13 Δ7W255A (UniProt Q86YI8). Kind of test: co-IP. The source holds these as a separate data set.
Test [16] concerns the target YFP-PHF13 Δ7 (150-300) (UniProt Q86YI8). The test is described as follows: co-IP. This is another data set of the same source.

Like-named read-outs stand apart in the source and are kept apart here. Results are given in words; binding and its absence hold for the method and conditions named. For part of these data: Binding seen in cells or lysates may run through a third protein. Some entries that bind do so weakly or less than the wild type.

“CFP-PHF13 1-150 (the first 150 N-terminal amino acids) (from UniProt Q86YI8 1-150) (domain or fragment)”: the binding result in test [1] is given as “binds”.

With “CFP-PHF13 ΔNTD (from UniProt Q86YI8 1-300)”, in test [1], the binding entry is on record as “no binding”. Take “PHF13 (endogenous) (from UniProt Q86YI8 1-300)”: the binding result in test [2] is “binds”. As to “CFP-150-300 (from UniProt Q86YI8 150-300) (domain or fragment)”, the binding entry in [1] was “no binding”.

Consider YFP-PHF13 (from UniProt Q86YI8 1-300), for which the binding entry in test [3] is recorded as “binds”. For the molecule “CFP-PHF13 Δ24-40 (from UniProt Q86YI8 1-300)”, the binding entry in test [1] is “no binding”.

Take EGFP-PHF13 (from UniProt Q86YI8 1-300): the binding entry in test [4] and in [3] was “binds” in each case. Take “SMC3 (endogenous cohesin subunit) (from UniProt Q9UQE7 1-1217)”: the binding result in test [5], in test [6], in [7], in [8], in [9] and in test [10] was “binds” in each case. The binding result in test [11] is given as “binds”. As for “in vitro translated PHF13 (from UniProt Q86YI8 1-300)”, the binding entry in [12] is listed as “binds”.

B1: RAD21 (endogenous cohesin subunit) (protein, UniProt O60216 1-631)
chain: MFYAHFVLSKRGPLAKIWLAAHWDKKLTKAHVFECNLESSVESIISPKVKMALRTSGHLLLGVVRIYHRKAKYLLADCNEAFIKIKMAFRPGVVDLPEENREAAYNAITLPEEFHDFDQPLPDLDDIDVAQQFSLNQSRVEEITMREEVGNISILQENDFGDFGMDDREIMREGSAFEDDDMLVSTTTSNLLLESEQSTSNLNEKINHLEYEDQYKDDNFGEGNDGGILDDKLISNNDGGIFDDPPALSEAGVMLPEQPAHDDMDEDDNVSMGGPDSPDSVDPVEPMPTMTDQTTLVPNEEEAFALEPIDITVKETKAKRKRKLIVDSVKELDSKTIRAQLSDYSDIVTTLDLAPPTKKLMMWKETGGVEKLFSLPAQPLWNNRLLKLFTRCLTPLVPEDLRKRRKGGEADNLDEFLKEFENPEVPREDQQQQHQQRDVIDEPIIEEPSRLQESVMEASRTNIDESAMPPPPPQGVKRKAGQIDPEPVMPPQQVEQMEIPPVELPPEEPPNICQLIPELELLPEKEKEKEKEKEDDEEEEDEDASGGDQDQEERRWNKRTQQMLHGLQRALAKTGAESISLLELCRNTNRKQAAAKFYSFLVLKKQQAIELTQEEPYSDIIATPGPRFHII
As to B1, the binding entry in test [13] is recorded as “binds”.

B2: SA2 (endogenous cohesin subunit) (protein, UniProt Q8N3U4 1-1231)
chain: MIAAPEIPTDFNLLQESETHFSSDTDFEDIEGKNQKQGKGKTCKKGKKGPAEKGKGGNGGGKPPSGPNRMNGHHQQNGVENMMLFEVVKMGKSAMQSVVDDWIESYKHDRDIALLDLINFFIQCSGCKGVVTAEMFRHMQNSEIIRKMTEEFDEDSGDYPLTMAGPQWKKFKSSFCEFIGVLVRQCQYSIIYDEYMMDTVISLLTGLSDSQVRAFRHTSTLAAMKLMTALVNVALNLSINMDNTQRQYEAERNKMIGKRANERLELLLQKRKELQENQDEIENMMNAIFKGVFVHRYRDAIAEIRAICIEEIGIWMKMYSDAFLNDSYLKYVGWTMHDKQGEVRLKCLTALQGLYYNKELNSKLELFTSRFKDRIVSMTLDKEYDVAVQAIKLLTLVLQSSEEVLTAEDCENVYHLVYSAHRPVAVAAGEFLYKKLFSRRDPEEDGMMKRRGRQGPNANLVKTLVFFFLESELHEHAAYLVDSMWDCATELLKDWECMNSLLLEEPLSGEEALTDRQESALIEIMLCTIRQAAECHPPVGRGTGKRVLTAKEKKTQLDDRTKITELFAVALPQLLAKYSVDAEKVTNLLQLPQYFDLEIYTTGRLEKHLDALLRQIRNIVEKHTDTDVLEACSKTYHALCNEEFTIFNRVDISRSQLIDELADKFNRLLEDFLQEGEEPDEDDAYQVLSTLKRITAFHNAHDLSKWDLFACNYKLLKTGIENGDMPEQIVIHALQCTHYVILWQLAKITESSSTKEDLLRLKKQMRVFCQICQHYLTNVNTTVKEQAFTILCDILMIFSHQIMSGGRDMLEPLVYTPDSSLQSELLSFILDHVFIEQDDDNNSADGQQEDEASKIEALHKRRNLLAAFCKLIVYTVVEMNTAADIFKQYMKYYNDYGDIIKETMSKTRQIDKIQCAKTLILSLQQLFNEMIQENGYNFDRSSSTFSGIKELARRFALTFGLDQLKTREAIAMLHKDGIEFAFKEPNPQGESHPPLNLAFLDILSEFSSKLLRQDKRTVYVYLEKFMTFQMSLRREDVWLPLMSYRNSLLAGGDDDTMSVISGISSRGSTVRSKKSKPSTGKRKVVEGMQLSLTEESSSSDSMWLSREQTLHTPVMMQTPQLTSTIMREPKRLRPEDSFMSVYPMQTEHHQTPLDYNRRGTSLMEDDEEPIVEDVMMSSEGRIEDLNEGMDFDTMDIDLPPSKNRRERTELKPDFFDPASIMDESVLGVSMF
Consider B2, for which the binding entry in test [14], in test [13], in test [15] and in test [16] was “binds” each time.
